In article PMC7774954, “Interactomic affinity profiling by holdup assay: Acetylation and distal residues impact the PDZome-binding specificity of PTEN phosphatase” (PLoS ONE, 2020) one finds binding data, which are given here for 3 molecules.

Protein sequences, listed by entry. Tags and fused reporters are not part of them. Lines headed by an entry give the natural chain unless they say otherwise; changes in a name come on top.
UniProt P60484: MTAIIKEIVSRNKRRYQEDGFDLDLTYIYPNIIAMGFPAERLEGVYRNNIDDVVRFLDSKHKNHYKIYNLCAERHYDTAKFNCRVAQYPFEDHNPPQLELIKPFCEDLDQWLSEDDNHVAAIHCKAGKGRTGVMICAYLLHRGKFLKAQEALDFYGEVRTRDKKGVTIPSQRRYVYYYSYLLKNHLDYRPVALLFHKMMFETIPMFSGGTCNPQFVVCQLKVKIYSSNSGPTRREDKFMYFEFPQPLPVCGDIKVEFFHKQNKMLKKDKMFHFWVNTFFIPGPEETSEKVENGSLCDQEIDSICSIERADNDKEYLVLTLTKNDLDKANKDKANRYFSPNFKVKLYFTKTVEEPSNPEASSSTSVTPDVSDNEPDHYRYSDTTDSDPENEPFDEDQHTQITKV

No constants are given. Whether binding was seen depends on the method and setting. Some results given as binding are weak or reduced against the parent protein; the word gives no strength.

For one assay, the target named is PTEN_11 (human) (UniProt P60484). Put plainly: holdup assay; biotinylated PBM peptide saturating streptavidin resin (biotin resin as reference); tag-PDZ at 4 uM in crude E. coli lysate, 15 min, filtration, free tag-PDZ by capillary electrophoresis; singlicate; BI cut-off 0.20; BI converted into KD with the peptide concentration back-calculated from FP; only the target purified.

The target of another assay is PTEN_13 (human) (UniProt P60484). Described as above.
In a further assay the target is PTEN_Ac (human) (UniProt P60484). The description is as above.
The next assay deals with PTEN_KR (human) (UniProt P60484). The description is as above.
The target in assay [1] is T1, fRSK1, fluorescein-labelled RSK1 PBM peptide.
T1 sequence (peptide, fluorescein on the N-terminus): KLPSTTL
As to the kind of experiment: fluorescence polarisation; competitive: pre-formed complex of PDZ domain (>60-80% complex) and 50 nM fluorescent tracer peptide, increasing amount of unlabeled PTEN peptide (8 concentrations); 20 mM HEPES pH 7.5, 150 mM NaCl, 0.5 mM TCEP, 0.01% Tween 20; triplicate; competitive binding model (ProFit); apparent; both purified. Background: Fluorescence polarisation rises when a labelled molecule tumbles more slowly, as on binding a larger partner.

B1: SDCBP-1 (domain or fragment, UniProt O00560 114-193)
chain: EVILCKDQDGKIGLRLKSIDNGIFVQLVQANSPASLVGLRFGDQVLQINGENCAGWSSDKAHKVLKQAFGEKITMTIRDR
Take B1: the binding entry with PTEN_11 (human), with PTEN_13 (human), in the assay with PTEN_Ac (human) and with PTEN_KR (human) was “no binding (tested: BI cut-off 0.20)” in each case.

B2: PDZD7-3, third PDZ domain of PDZD7 (domain or fragment, UniProt Q9H5P4 862-934)
chain: TVTLSKMKQSLGISISGGIESKVQPMVKIEKIFPGGAAFLSGALQAGFELVAVDGENLEQVTHQRAVDTIRRA
B2: the binding result in assay [1] is reported as “binds”.

B3: PDZD7-3 (domain or fragment, UniProt Q9H5P4 862-934)
chain: TVTLSKMKQSLGISISGGIESKVQPMVKIEKIFPGGAAFLSGALQAGFELVAVDGENLEQVTHQRAVDTIRRA
Consider B3, for which the binding result in the assay with PTEN_11 (human), with PTEN_13 (human), in the assay with PTEN_Ac (human) and in the assay with PTEN_KR (human) was “binds” in each case.
